Publication PMC11263397
These are yes or no findings as the source states them, for the method shown. Some results given as binding are weak or reduced against the parent protein; the word gives no strength. Sequences can lack the tags named with a protein.

Biological target: T1, Flag-tagged FBXO24 (UniProt O75426)
T1 sequence: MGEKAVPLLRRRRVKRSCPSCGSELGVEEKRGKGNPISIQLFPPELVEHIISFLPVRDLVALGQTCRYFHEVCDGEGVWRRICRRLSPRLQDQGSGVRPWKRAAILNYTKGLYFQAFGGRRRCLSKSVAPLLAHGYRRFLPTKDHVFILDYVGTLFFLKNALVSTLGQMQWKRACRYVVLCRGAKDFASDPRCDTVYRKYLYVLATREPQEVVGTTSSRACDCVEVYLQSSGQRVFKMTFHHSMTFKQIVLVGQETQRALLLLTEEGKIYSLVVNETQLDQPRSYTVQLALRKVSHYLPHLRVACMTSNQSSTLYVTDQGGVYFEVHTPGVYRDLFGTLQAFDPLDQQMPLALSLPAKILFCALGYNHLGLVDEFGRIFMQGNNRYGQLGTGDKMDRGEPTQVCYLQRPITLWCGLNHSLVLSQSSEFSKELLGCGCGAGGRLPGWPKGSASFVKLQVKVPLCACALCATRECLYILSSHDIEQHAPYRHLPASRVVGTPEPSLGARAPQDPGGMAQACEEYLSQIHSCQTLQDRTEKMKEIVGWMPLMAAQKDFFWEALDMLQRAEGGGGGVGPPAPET
Assay: pull-down; tagged FBXO24 overexpressed in HEK293T, immunoprecipitated on FLAG magnetic beads, suspended in PBS, incubated with increasing BC-1293 or control BC-1395 for 24 h at 4 °C; recombinant DARS2 or DARS1 added for 4 h at RT; washed with IP wash buffer, eluted by boiling, immunoblot; both purified

B1: recombinant human DARS2 (enzyme, UniProt Q6PI48 48-645)
chain: VVRTNTCGELRSSHLGQEVTLCGWIQYRRQNTFLVLRDFDGLVQVIIPQDESAASVKKILCEAPVESVVQVSGTVISRPAGQENPKMPTGEIEIKVKTAELLNACKKLPFEIKNFVKKTEALRLQYRYLDLRSFQMQYNLRLRSQMVMKMREYLCNLHGFVDIETPTLFKRTPGGAKEFLVPSREPGKFYSLPQSPQQFKQLLMVGGLDRYFQVARCYRDEGSRPDRQPEFTQIDIEMSFVDQTGIQSLIEGLLQYSWPNDKDPVVVPFPTMTFAEVLATYGTDKPDTRFGMKIIDISDVFRNTEIGFLQDALSKPHGTVKAICIPEGAKYLKRKDIESIRNFAADHFNQEILPVFLNANRNWNSPVANFIMESQRLELIRLMETQEEDVVLLTAGEHNKACSLLGKLRLECADLLETRGVVLRDPTLFSFLWVVDFPLFLPKEENPRELESAHHPFTAPHPSDIHLLYTEPKKARSQHYDLVLNGNEIGGGSIRIHNAELQRYILATLLKEDVKMLSHLLQALDYGAPPHGGIALGLDRLICLVTGSPSIRDVIAFPKSFRGHDLMSNTPDSVPPEELKPYHIRVSKPTDSKAERAH
With B1 the binding was “binds”.

B2: recombinant human DARS1 (enzyme, UniProt P14868 1-501)
chain: MPSASASRKSQEKPREIMDAAEDYAKERYGISSMIQSQEKPDRVLVRVRDLTIQKADEVVWVRARVHTSRAKGKQCFLVLRQQQFNVQALVAVGDHASKQMVKFAANINKESIVDVEGVVRKVNQKIGSCTQQDVELHVQKIYVISLAEPRLPLQLDDAVRPEAEGEEEGRATVNQDTRLDNRVIDLRTSTSQAVFRLQSGICHLFRETLINKGFVEIQTPKIISAASEGGANVFTVSYFKNNAYLAQSPQLYKQMCICADFEKVFSIGPVFRAEDSNTHRHLTEFVGLDIEMAFNYHYHEVMEEIADTMVQIFKGLQERFQTEIQTVNKQFPCEPFKFLEPTLRLEYCEALAMLREAGVEMGDEDDLSTPNEKLLGHLVKEKYDTDFYILDKYPLAVRPFYTMPDPRNPKQSNSYDMFMRGEEILSGAQRIHDPQLLTERALHHGIDLEKIKAYIDSFRFGAPPHAGGGIGLERVTMLFLGLHNVRQTSMFPRDPKRLTP
For B2, the binding was “no binding”.
